Laboratory results reported in patent publication US20080107654A1.
Numbering of substitutions follows the chain as printed. These are yes or no findings as the source states them, for the method shown. Some results given as binding are weak or reduced against the parent protein; the word gives no strength.

Protein sequences, listed by entry. Tags and fused reporters are not part of them. Residues count along the entry.
UniProt Q08722, residues 19-141: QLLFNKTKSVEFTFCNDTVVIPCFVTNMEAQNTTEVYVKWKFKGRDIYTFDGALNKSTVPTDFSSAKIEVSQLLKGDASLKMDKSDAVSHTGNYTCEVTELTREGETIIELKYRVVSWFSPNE

Biological target: soluble human CD47 (human) (UniProt Q08722)
Assay: BIACORE, soluble human CD47 amine-coupled to CM5 chip, CHO culture supernatant injected

B1: humanized MABL-2 HL5 SS44 (scFv)
scFv: QVQLVQSGAEVKKPGASVQVSCKASGYTFTNHVIHWLRQAPGQCLEWMGYIYPYNDGTKYNEKFKDRVTMTSDTSISTAYMELSSLRSDDTAVYYCARGGYYTYDDWGQATLVTVSSGGGGSDIVMTQSPLSLPVTPGEPASISCRSSQSLVHSNGKTYLHWYLQKPGQSPRLLIYKVSNRFSGVPDRFSGSGSGTDFTLKISRVEADDVGIYYCSQSTHVPYTFGCGTKLEIK
- binding: binds

B2: humanized MABL-2 HL5 SS105 (scFv)
scFv: B1 scFv with C44G, Q109C, S170C, C227Q
- binding: binds
